Test results reported in the supplement of paper PMC10849652.
This is one part of the list.

Chains of the proteins cited; added tags and fusions are not shown. Lines headed by an entry give the natural chain unless they say otherwise; changes in a name come on top.
UniProt P46379: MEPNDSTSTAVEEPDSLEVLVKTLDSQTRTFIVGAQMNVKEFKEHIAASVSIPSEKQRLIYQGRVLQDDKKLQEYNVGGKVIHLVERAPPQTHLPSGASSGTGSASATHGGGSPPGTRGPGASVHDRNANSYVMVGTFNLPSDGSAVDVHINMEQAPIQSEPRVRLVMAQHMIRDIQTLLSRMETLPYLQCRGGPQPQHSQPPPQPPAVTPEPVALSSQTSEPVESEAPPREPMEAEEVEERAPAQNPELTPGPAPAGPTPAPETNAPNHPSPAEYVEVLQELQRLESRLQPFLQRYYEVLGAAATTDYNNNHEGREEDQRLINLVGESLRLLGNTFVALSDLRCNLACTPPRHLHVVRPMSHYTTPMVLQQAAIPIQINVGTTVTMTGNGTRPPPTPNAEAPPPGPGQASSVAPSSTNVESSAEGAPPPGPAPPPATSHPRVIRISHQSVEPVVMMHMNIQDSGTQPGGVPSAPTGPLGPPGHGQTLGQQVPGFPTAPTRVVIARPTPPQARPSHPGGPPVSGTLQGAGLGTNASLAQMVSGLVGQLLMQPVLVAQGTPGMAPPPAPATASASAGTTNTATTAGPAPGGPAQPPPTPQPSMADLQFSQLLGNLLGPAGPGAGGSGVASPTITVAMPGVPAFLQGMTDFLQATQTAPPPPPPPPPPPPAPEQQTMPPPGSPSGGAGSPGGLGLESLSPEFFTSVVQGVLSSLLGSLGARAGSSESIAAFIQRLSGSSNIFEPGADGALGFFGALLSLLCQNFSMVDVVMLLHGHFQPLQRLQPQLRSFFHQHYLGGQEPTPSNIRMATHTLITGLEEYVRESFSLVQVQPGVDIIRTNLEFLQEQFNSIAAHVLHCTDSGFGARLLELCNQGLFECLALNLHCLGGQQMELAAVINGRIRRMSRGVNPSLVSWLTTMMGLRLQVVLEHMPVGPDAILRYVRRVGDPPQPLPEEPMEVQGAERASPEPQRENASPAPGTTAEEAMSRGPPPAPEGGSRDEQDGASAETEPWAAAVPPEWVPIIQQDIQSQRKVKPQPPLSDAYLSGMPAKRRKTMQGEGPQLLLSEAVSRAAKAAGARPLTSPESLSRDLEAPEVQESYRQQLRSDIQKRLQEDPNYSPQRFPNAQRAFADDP
UniProt P78537: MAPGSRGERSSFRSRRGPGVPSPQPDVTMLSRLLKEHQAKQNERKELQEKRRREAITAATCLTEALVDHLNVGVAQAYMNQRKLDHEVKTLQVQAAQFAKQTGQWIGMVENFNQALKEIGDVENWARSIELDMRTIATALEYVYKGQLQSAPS
UniProt P30043: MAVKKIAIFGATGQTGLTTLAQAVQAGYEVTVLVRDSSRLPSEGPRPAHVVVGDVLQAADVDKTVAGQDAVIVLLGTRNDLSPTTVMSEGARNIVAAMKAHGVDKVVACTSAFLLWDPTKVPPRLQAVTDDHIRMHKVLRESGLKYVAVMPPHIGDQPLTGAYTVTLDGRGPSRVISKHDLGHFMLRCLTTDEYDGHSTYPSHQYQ
UniProt Q8NFC6: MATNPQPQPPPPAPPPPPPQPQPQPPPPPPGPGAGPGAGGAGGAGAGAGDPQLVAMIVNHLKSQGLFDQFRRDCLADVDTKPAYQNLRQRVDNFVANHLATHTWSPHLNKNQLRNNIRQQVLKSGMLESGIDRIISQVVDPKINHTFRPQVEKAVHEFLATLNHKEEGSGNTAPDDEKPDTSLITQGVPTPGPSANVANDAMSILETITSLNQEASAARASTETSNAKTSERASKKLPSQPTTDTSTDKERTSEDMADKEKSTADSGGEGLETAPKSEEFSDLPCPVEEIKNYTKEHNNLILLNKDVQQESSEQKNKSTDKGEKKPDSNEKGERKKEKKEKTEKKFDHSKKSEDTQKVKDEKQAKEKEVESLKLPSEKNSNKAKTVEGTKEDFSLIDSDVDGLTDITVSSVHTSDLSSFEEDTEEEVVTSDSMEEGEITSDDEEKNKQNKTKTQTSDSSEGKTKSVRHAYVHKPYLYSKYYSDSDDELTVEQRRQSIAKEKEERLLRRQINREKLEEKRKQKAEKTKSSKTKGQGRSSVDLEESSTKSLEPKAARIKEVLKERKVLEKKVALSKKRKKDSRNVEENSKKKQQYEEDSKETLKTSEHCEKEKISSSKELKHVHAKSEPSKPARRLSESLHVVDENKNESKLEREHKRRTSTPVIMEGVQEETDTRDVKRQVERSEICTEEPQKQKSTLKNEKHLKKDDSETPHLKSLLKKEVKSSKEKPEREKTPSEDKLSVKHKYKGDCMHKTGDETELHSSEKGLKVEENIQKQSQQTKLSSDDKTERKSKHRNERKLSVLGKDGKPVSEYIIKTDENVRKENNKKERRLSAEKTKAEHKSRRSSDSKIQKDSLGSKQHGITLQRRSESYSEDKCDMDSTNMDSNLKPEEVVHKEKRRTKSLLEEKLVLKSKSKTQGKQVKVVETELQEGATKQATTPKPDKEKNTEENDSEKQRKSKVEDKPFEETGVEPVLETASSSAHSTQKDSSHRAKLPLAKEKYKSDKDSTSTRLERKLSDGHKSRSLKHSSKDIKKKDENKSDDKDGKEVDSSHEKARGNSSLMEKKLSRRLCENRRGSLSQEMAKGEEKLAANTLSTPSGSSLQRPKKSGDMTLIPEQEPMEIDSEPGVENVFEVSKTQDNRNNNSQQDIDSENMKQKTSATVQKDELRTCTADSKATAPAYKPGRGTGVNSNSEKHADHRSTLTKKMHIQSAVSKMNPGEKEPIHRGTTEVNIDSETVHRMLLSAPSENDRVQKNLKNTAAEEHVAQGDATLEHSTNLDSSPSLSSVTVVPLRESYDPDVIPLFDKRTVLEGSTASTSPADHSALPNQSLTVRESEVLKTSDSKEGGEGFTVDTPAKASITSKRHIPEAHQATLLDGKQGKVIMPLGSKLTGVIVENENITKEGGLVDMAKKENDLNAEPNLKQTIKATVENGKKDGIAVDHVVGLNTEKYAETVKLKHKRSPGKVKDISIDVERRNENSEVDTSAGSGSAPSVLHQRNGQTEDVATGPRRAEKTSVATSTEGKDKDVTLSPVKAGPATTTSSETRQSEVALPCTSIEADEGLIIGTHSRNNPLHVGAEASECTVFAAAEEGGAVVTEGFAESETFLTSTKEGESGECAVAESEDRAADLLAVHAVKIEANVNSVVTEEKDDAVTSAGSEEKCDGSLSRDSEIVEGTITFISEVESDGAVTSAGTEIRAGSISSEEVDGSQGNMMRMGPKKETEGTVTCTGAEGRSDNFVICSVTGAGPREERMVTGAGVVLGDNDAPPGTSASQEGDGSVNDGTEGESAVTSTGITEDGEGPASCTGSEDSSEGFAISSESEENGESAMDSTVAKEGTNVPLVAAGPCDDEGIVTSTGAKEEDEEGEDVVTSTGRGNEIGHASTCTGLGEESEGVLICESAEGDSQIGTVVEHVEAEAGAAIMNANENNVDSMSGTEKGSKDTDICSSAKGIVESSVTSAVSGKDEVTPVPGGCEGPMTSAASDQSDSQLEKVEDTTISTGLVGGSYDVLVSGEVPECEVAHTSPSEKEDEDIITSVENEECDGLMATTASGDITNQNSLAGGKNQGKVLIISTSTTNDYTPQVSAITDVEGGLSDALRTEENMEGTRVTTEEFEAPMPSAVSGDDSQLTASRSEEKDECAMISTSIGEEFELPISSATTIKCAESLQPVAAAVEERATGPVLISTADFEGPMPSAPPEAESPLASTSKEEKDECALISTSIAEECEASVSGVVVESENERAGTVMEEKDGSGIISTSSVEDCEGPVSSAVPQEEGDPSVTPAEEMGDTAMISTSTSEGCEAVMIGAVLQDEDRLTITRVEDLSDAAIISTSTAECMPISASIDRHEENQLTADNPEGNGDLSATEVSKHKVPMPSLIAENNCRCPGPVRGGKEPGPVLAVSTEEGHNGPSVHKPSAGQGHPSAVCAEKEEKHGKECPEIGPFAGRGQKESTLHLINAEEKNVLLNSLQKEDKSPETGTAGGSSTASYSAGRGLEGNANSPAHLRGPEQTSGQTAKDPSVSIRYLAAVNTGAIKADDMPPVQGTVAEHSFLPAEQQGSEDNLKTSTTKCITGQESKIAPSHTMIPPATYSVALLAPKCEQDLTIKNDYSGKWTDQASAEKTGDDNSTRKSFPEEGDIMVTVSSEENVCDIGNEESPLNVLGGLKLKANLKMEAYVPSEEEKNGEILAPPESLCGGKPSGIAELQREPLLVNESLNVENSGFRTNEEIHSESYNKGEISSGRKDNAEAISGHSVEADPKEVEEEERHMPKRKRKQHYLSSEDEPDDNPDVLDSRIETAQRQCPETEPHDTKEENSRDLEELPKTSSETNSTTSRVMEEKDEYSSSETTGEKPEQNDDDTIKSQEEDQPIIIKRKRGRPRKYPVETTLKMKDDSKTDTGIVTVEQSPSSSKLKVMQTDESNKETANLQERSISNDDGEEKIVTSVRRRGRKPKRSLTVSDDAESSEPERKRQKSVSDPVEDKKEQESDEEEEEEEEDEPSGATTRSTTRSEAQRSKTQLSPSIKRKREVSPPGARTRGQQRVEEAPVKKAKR
UniProt P13497: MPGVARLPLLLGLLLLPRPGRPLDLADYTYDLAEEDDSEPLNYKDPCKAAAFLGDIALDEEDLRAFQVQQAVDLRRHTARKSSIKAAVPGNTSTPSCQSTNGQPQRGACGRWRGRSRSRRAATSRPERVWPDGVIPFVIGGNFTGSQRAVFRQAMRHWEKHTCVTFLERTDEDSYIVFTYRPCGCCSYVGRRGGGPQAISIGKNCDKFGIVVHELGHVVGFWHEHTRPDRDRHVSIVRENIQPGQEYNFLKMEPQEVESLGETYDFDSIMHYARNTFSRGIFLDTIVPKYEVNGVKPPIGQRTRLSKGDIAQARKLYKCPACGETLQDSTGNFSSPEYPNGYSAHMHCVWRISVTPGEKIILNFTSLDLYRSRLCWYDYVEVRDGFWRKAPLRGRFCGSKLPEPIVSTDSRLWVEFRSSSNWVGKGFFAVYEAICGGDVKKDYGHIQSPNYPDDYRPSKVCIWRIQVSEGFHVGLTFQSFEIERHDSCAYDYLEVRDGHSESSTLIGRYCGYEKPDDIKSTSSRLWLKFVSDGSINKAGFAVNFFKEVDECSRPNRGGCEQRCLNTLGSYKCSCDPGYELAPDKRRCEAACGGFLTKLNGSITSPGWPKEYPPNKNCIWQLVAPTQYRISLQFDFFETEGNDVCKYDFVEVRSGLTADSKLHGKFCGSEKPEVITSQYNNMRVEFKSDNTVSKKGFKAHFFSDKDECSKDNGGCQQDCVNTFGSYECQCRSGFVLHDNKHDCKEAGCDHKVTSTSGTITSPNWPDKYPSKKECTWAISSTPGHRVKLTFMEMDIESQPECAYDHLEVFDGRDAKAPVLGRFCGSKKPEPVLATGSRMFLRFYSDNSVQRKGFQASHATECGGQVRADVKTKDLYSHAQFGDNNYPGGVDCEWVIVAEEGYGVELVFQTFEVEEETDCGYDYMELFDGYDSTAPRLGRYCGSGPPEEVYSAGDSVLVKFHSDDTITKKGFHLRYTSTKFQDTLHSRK
UniProt Q14457, whole entry, looked up: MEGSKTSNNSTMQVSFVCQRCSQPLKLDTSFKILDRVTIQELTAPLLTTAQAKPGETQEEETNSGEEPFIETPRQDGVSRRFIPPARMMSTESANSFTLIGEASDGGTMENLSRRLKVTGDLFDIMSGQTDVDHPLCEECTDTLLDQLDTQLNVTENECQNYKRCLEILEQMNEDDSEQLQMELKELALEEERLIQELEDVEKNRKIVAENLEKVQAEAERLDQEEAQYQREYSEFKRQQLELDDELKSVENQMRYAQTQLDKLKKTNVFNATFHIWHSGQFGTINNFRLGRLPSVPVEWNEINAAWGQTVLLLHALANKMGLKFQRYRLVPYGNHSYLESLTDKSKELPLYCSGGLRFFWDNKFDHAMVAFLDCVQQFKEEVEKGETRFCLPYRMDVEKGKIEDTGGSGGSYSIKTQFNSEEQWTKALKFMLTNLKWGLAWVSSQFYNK
UniProt P12694: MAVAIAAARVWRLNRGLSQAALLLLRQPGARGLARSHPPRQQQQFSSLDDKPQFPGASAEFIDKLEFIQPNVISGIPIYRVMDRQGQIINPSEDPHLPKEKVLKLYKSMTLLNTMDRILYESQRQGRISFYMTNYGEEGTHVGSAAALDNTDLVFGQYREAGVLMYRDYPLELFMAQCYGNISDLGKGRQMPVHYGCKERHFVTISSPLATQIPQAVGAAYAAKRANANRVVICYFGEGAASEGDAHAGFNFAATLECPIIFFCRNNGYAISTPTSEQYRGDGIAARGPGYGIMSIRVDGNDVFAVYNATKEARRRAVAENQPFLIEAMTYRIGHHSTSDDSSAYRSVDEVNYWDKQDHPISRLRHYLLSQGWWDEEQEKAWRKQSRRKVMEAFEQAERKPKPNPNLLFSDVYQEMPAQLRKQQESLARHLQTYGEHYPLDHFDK
UniProt O95415: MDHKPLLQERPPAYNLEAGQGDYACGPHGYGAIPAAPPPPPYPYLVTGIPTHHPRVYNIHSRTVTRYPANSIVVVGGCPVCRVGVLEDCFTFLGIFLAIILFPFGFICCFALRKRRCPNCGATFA

Assays:
Assay in all cases: log2 fold change, soluble protein after heating vs DMSO (PISA); higher = thermal stabilisation; K562 cells, 10 uM, 30 min; active = over 0.2 and 3.5 SD of the protein, either way, in both replicates (recomputed)
[1] = compound: Cc1ccc(NC(=O)c2ccc(CN3CC[C@H](N(C)C)C3)c(C(F)(F)F)c2)cc1Nc1nccc(-c2cncnc2)n1 [bafetinib]
Outline: (§1)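 K562 cells (2×10^6 cells/mL) were treated with 10 μM compound for 30 min, and aliquots were heated for 3 min over 48°C-58°C. Pooled aliquots were extracted in PBS with 0.5% NP-40 at 4°C, and the supernatant after 21,000xg for 90 min was measured by TMTpro 16plex LC-MS/MS with channel sums equalised. Reported thermal stability, relative to control samples and from duplicates, is a log2 fold change.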

[2] = compound: Cc1cccc(CC(=O)N2CCc3c2ccc(-c2cn(C)c4ncnc(N)c24)c3F)n1
Outline: as §1

[3] = compound: Cc1cn(-c2cc(NC(=O)c3ccc(C)c(Nc4nccc(-c5cccnc5)n4)c3)cc(C(F)(F)F)c2)cn1 [nilotinib]
Outline: as §1

[4] = compound: Cc1nc(Nc2n[nH]c3c2CN(C(=O)N[C@H](CN(C)C)c2ccccc2)C3(C)C)c2sccc2n1
Outline: as §1

[5] = compound: Cc1nc(Nc2ncc(C(=O)Nc3c(C)cccc3Cl)s2)cc(N2CCN(CCO)CC2)n1 [dasatinib]
Outline: as §1

[6] = compound: Cc1ncc(-c2ccnc(Nc3ccc(S(C)(=O)=O)cc3)n2)n1C(C)C
Outline: as §1

[7] = compound: Cn1cc(-c2ccc3c(c2)CCN3C(=O)Cc2cccc(C(F)(F)F)c2)c2c(N)ncnc21
Outline: as §1

[8] = compound: Cn1cc(-c2ccc3nnc(C(F)(F)c4ccc5ncccc5c4)n3n2)cn1
Outline: as §1

[9] = compound: Cn1cncc1[C@@](N)(c1ccc(Cl)cc1)c1ccc2c(c1)c(-c1cccc(Cl)c1)cc(=O)n2C [tipifarnib]
Outline: as §1

[10] = compound: FC(F)(F)c1ccc(/C=C/c2nc(COc3ccc(CCCCn4ccnn4)cc3)co2)cc1 [mubritinib]
Outline: as §1

[11] = compound: NC(=O)Nc1cc(-c2cccc(F)c2)sc1C(=O)N[C@H]1CCCNC1
Outline: as §1

[12] = compound: NC(=O)c1cnc(N[C@@H]2CCCC[C@@H]2N)nc1Nc1cccc(-n2nccn2)c1
Outline: as §1

[13] = compound: NC1(c2ccc(-c3nc4ccn5c(=O)[nH]nc5c4cc3-c3ccccc3)cc2)CCC1
Outline: as §1

[14] = compound: NCC(=O)Nc1ccc(-n2nc(C(F)(F)F)cc2-c2ccc3c(ccc4ccccc43)c2)cc1
Outline: as §1

[15] = compound: Nc1ccccc1NC(=O)c1ccc(CNC(=O)OCc2cccnc2)cc1 [entinostat]
Outline: as §1

[16] = compound: O=C(CCCCCCC(=O)Nc1ccccc1)NO [vorinostat]
Outline: as §1

[17] = compound: O=C(CCCCCCNC(=O)c1cnc(N(c2ccccc2)c2ccccc2Cl)nc1)NO [citarinostat]
Outline: as §1

[18] = compound: O=C(O)c1ccc2c(c1)nc(Nc1cccc(Cl)c1)c1ccncc12 [silmitasertib]
Outline: as §1

[19] = compound: O=C1NC(=O)C(c2cnc3ccccn23)=C1c1cn2c3c(cc(F)cc13)CN(C(=O)N1CCCCC1)CC2
Outline: as §1

[20] = compound: c1cc(OCCN2CCCCC2)cc(-c2n[nH]c3ccc(-c4nnc[nH]4)cc23)c1
Outline: as §1

Row | Target | log2 fold change [1] | log2 fold change [2] | log2 fold change [3] | log2 fold change [4] | log2 fold change [5] | log2 fold change [6] | log2 fold change [7] | log2 fold change [8] | log2 fold change [9] | log2 fold change [10] | log2 fold change [11] | log2 fold change [12] | log2 fold change [13] | log2 fold change [14] | log2 fold change [15] | log2 fold change [16] | log2 fold change [17] | log2 fold change [18] | log2 fold change [19] | log2 fold change [20]
1 | BAG6 isoform 3 (UniProt P46379) | inactive: -0.029 | inactive: 0.026 | inactive: -0.03 | inactive: 0.007 | inactive: -0.061 | inactive: 0.016 | inactive: -0.044 | inactive: -0.011 | inactive: -0.066 | inactive: -0.007 | inactive: -0.002 | inactive: -0.098 | inactive: -0.128 | inactive: -0.032 | inactive: 0.033 | inactive: 0.04 | inactive: 0.028 | inactive: 0.05 | inactive: -0.009 | inactive: -0.043
2 | BLOC1S1 (UniProt P78537) | inactive: 0.004 | inactive: -0.094 | inactive: 0.021 | inactive: -0.017 | inactive: -0.003 | inactive: -0.009 | inactive: 0.04 | inactive: 0.152 | inactive: -0.026 | inactive: -0.026 | inactive: 0.112 | inactive: -0.008 | inactive: -0.049 | inactive: -0.039 | inactive: -0.022 | inactive: -0.195 | inactive: -0.018 | inactive: -0.044 | inactive: -0.047 | inactive: 0.063
3 | BLVRB (UniProt P30043) | inactive: 0.014 | inactive: 0.05 | inactive: 0.021 | inactive: -0.109 | inactive: -0.064 | inactive: 0.029 | inactive: 0.032 | inactive: 0.074 | inactive: -0.021 | inactive: -0.097 | inactive: 0.069 | inactive: 0.006 | inactive: -0.116 | inactive: 0.018 | inactive: 0.058 | inactive: 0 | inactive: 0.058 | inactive: 0.01 | inactive: 0.021 | inactive: -0.035
4 | BAP1 (UniProt Q92560) | inactive: 0.252 | inactive: -0.071 | inactive: 0.007 | inactive: 0.053 | inactive: -0.031 | inactive: 0.006 | inactive: -0.086 | inactive: -0.064 | inactive: 0.076 | inactive: -0.201 | inactive: -0.073 | inactive: 0.085 | inactive: 0.073 | inactive: 0.012 | inactive: -0.054 | inactive: 0.13 | inactive: 0.058 | inactive: 0.04 | inactive: 0.076 | inactive: -0.142
5 | BCS1L, A0A2R8Y7T3 | inactive: 0.1 | – | – | – | – | – | – | – | – | – | – | – | – | – | – | – | – | – | – | –
6 | BOD1L1 (UniProt Q8NFC6) | inactive: 0.06 | inactive: -0.009 | inactive: 0.043 | inactive: -0.076 | inactive: 0.063 | inactive: -0.009 | inactive: -0.052 | inactive: -0.016 | inactive: 0.041 | inactive: -0.016 | inactive: 0.023 | inactive: -0.019 | inactive: 0.065 | inactive: 0.04 | inactive: -0.054 | inactive: 0.011 | inactive: -0.019 | inactive: -0.009 | inactive: 0.037 | inactive: -0.121
7 | BMP1 (UniProt P13497) | inactive: -0.057 | – | – | – | – | – | – | – | – | – | – | – | – | – | – | – | – | – | – | –
8 | BECN1 (UniProt Q14457) | inactive: 0.063 | inactive: -0.032 | inactive: 0.032 | inactive: -0.025 | inactive: -0.072 | inactive: 0.076 | inactive: -0.015 | inactive: -0.038 | inactive: -0.003 | inactive: 0.023 | inactive: 0.045 | inactive: 0.083 | inactive: -0.006 | inactive: -0.016 | inactive: -0.024 | inactive: -0.073 | inactive: -0.046 | inactive: 0.026 | inactive: -0.071 | inactive: 0.021
9 | BCAT1 (UniProt P54687) | inactive: 0.006 | inactive: -0.012 | inactive: -0.025 | inactive: 0.002 | inactive: 0.021 | inactive: -0.032 | inactive: 0.023 | inactive: 0.034 | inactive: -0.017 | inactive: 0.029 | inactive: 0.012 | inactive: 0.006 | inactive: 0.003 | inactive: -0.004 | inactive: -0.021 | inactive: 0.009 | inactive: 0.018 | inactive: -0.004 | inactive: 0.005 | inactive: 0.012
10 | BCL2L13 (UniProt Q9BXK5) | inactive: -0.067 | inactive: 0.002 | inactive: -0.007 | inactive: -0.025 | inactive: -0.007 | inactive: 0.006 | inactive: 0.01 | inactive: 0.027 | inactive: 0.041 | inactive: 0.046 | inactive: -0.016 | inactive: -0.108 | inactive: -0.098 | inactive: -0.031 | inactive: 0.019 | inactive: 0.042 | inactive: 0.049 | inactive: 0.023 | inactive: -0.048 | inactive: -0.031
11 | AURKA (UniProt O14965) | inactive: 0.103 | inactive: -0.113 | inactive: -0.001 | active: 0.699 | inactive: 0.365 | inactive: 0.47 | inactive: 0.073 | inactive: -0.016 | inactive: -0.054 | inactive: -0.078 | inactive: 0.077 | inactive: -0.02 | inactive: 0.059 | inactive: -0.033 | inactive: -0.072 | inactive: -0.06 | inactive: -0.036 | inactive: 0.015 | inactive: 0.105 | inactive: -0.328
12 | BCS1L (UniProt Q9Y276) | inactive: -0.064 | inactive: -0.026 | inactive: -0.027 | inactive: 0.028 | inactive: 0.028 | inactive: -0.007 | inactive: 0.05 | inactive: 0.025 | inactive: 0.023 | inactive: 0.051 | inactive: -0.014 | inactive: -0.022 | inactive: -0.021 | inactive: -0.029 | inactive: -0.024 | inactive: -0.025 | inactive: 0.028 | inactive: -0.023 | inactive: -0.063 | inactive: -0.003
13 | BRAT1 (UniProt Q6PJG6) | inactive: 0.002 | inactive: 0.026 | inactive: -0.004 | inactive: 0.051 | inactive: -0.195 | inactive: -0.082 | inactive: 0.046 | inactive: 0 | inactive: -0.018 | inactive: 0.023 | inactive: -0.017 | inactive: 0.014 | inactive: -0.065 | inactive: -0.006 | inactive: 0.013 | inactive: 0.062 | inactive: 0.042 | inactive: 0.004 | inactive: -0.05 | inactive: -0.048
14 | BAHCC1 (UniProt Q9P281) | inactive: 0.077 | inactive: -0.128 | inactive: -0.081 | inactive: 0.115 | inactive: 0.092 | inactive: -0.059 | inactive: -0.216 | inactive: 0.171 | inactive: 0.107 | inactive: -0.039 | inactive: -0.271 | inactive: -0.383 | inactive: -0.3 | inactive: -0.46 | inactive: -0.088 | inactive: -0.044 | inactive: -0.136 | inactive: 0.159 | inactive: 0.026 | inactive: -0.213
15 | BCKDHA (UniProt P12694) | inactive: -0.029 | inactive: -0.074 | inactive: 0.172 | inactive: -0.064 | inactive: -0.116 | inactive: -0.023 | inactive: -0.058 | inactive: -0.05 | inactive: -0.003 | inactive: 0.014 | inactive: 0.009 | inactive: -0.035 | inactive: -0.062 | inactive: -0.042 | inactive: 0.003 | inactive: -0.011 | inactive: 0.017 | inactive: 0.066 | inactive: 0.009 | inactive: -0.066
16 | BRI3 (UniProt O95415) | inactive: -0.162 | – | – | – | – | – | – | – | – | – | – | – | – | – | – | – | – | – | – | –
17 | BABAM1 (UniProt Q9NWV8) | inactive: 0.015 | inactive: -0.009 | inactive: -0.002 | inactive: 0.016 | inactive: 0.04 | inactive: 0 | inactive: -0.014 | inactive: -0.029 | inactive: 0.01 | inactive: -0.026 | inactive: 0.032 | inactive: 0.032 | inactive: 0.021 | inactive: 0.042 | inactive: -0.035 | inactive: -0.015 | inactive: -0.019 | inactive: 0.047 | inactive: 0.004 | inactive: -0.022

No new results follow: entries from further up.
Row | Target | log2 fold change [1] | log2 fold change [2] | log2 fold change [3] | log2 fold change [4] | log2 fold change [5] | log2 fold change [6] | log2 fold change [7] | log2 fold change [8] | log2 fold change [9] | log2 fold change [10] | log2 fold change [11] | log2 fold change [12] | log2 fold change [13] | log2 fold change [14] | log2 fold change [15] | log2 fold change [16] | log2 fold change [17] | log2 fold change [18] | log2 fold change [19] | log2 fold change [20]
12 | BCS1L (UniProt Q9Y276) | inactive: -0.064 | inactive: -0.026 | inactive: -0.027 | inactive: 0.028 | inactive: 0.028 | inactive: -0.007 | inactive: 0.05 | inactive: 0.025 | inactive: 0.023 | inactive: 0.051 | inactive: -0.014 | inactive: -0.022 | inactive: -0.021 | inactive: -0.029 | inactive: -0.024 | inactive: -0.025 | inactive: 0.028 | inactive: -0.023 | inactive: -0.063 | inactive: -0.003
13 | BRAT1 (UniProt Q6PJG6) | inactive: 0.002 | inactive: 0.026 | inactive: -0.004 | inactive: 0.051 | inactive: -0.195 | inactive: -0.082 | inactive: 0.046 | inactive: 0 | inactive: -0.018 | inactive: 0.023 | inactive: -0.017 | inactive: 0.014 | inactive: -0.065 | inactive: -0.006 | inactive: 0.013 | inactive: 0.062 | inactive: 0.042 | inactive: 0.004 | inactive: -0.05 | inactive: -0.048
14 | BAHCC1 (UniProt Q9P281) | inactive: 0.077 | inactive: -0.128 | inactive: -0.081 | inactive: 0.115 | inactive: 0.092 | inactive: -0.059 | inactive: -0.216 | inactive: 0.171 | inactive: 0.107 | inactive: -0.039 | inactive: -0.271 | inactive: -0.383 | inactive: -0.3 | inactive: -0.46 | inactive: -0.088 | inactive: -0.044 | inactive: -0.136 | inactive: 0.159 | inactive: 0.026 | inactive: -0.213
15 | BCKDHA (UniProt P12694) | inactive: -0.029 | inactive: -0.074 | inactive: 0.172 | inactive: -0.064 | inactive: -0.116 | inactive: -0.023 | inactive: -0.058 | inactive: -0.05 | inactive: -0.003 | inactive: 0.014 | inactive: 0.009 | inactive: -0.035 | inactive: -0.062 | inactive: -0.042 | inactive: 0.003 | inactive: -0.011 | inactive: 0.017 | inactive: 0.066 | inactive: 0.009 | inactive: -0.066
